Test results from paper PMC11432330, “Novel Drug-like HsrA Inhibitors Exhibit Potent Narrow-Spectrum Antimicrobial Activities against Helicobacter pylori” (International Journal of Molecular Sciences, 2024).
This continues a long series; more values of the same kind are listed elsewhere.

Test system: H. pylori 26695
Test: In vivo inhibition of HsrA: RNA-Seq transcriptomic analysis of exposed cells
Format: cell-based, Helicobacter pylori
Procedure: Bacterial growth from three blood agar plates of H. pylori ATCC 700392 (aka 26695) incubated for 48 h at 37 °C under microaerobic conditions was aseptically resuspended in BHI + FBS and adjusted to 10^7 CFU/mL. BHI broth cultures were incubated microaerobically at 37 °C for 24 h. […] At this time, bacterial growth was stopped by adding 1.5 mL ice-cold RNA stop solution (95% absolute ethanol, 5% acid-buffered phenol) and subsequently incubated on ice. Control samples were exposed to the same amount of DMSO instead of the inhibitor. Helicobacter cells from all samples were harvested by centrifugation (4000 rpm at 4 °C for 10 min), then the pellets were quickly frozen by immersion in liquid nitrogen and stored at −80 °C.
RNA-Seq analysis was performed by GENEWIZ (Azenta Life Sciences, Leipzig, Germany). Frozen cell pellets from two biological replicates of each treatment condition were properly submitted to GENEWIZ in dry ice. RNA-Seq libraries were prepared according to standard protocols via rRNA depletion, RNA fragmentation and random priming, reverse transcription, 5’-phosphorylation and dA-tailing of cDNAs, adaptor ligation, and PCR enrichment. Once the quality of each library was confirmed, they were sequenced on an Illumina NovaSeq 6000 (Illumina, San Diego, CA, USA) with 150-bp paired-ends. Raw sequence reads were filtered to remove possible adapter sequences and nucleotides with poor quality using Trimmomatic v.0.36 [105]. The trimmed reads were subsequently mapped to the H. pylori strain 26695 reference genome NC_000915.1 available on NCBI, by using the Bowtie2 aligner v.2.2.6 [106]. Unique gene hit counts were calculated by using featureCounts from the Subread package v.1.5.2. Only unique reads that fell within the gene regions were counted. Using DESeq2 [108], a comparison of the gene expression between the control and treated groups of samples was performed. The Wald test was used to generate p-values and log2 fold changes. Genes with an adjusted p-value < 0.05 and absolute log2 fold change >1 were considered as differentially expressed genes (DEGs) for each comparison. The RNA-Seq data generated in this study have been deposited in ArrayExpress with the accession number E-MTAB-14255.

Structure (SMILES): NC(=NOC(=O)Nc1ccc(Cl)cc1)c1csc([N+](=O)[O-])c1 [Ligand V, N′-{[(4-chloroanilino)carbonyl]}oxy-5-nitrothiophene-3-carboximidamide]
- log2 Fold Change (gene HP0731, exposed to lethal concentrations of V vs control): 0.920
- log2 Fold Change (gene HP0735, exposed to lethal concentration of V vs control): -1.192
- log2 Fold Change (gene HP0736, exposed to lethal concentration of V vs control): -0.931
- log2 Fold Change (gene HP0739, exposed to lethal concentrations vs control): -0.821
- log2 Fold Change (gene HP0740, exposed to lethal concentrations vs control): -0.841
- log2 Fold Change (gene HP0745, exposed to lethal concentrations of V vs control): 0.502
- log2 Fold Change (gene HP0746, exposed to lethal concentrations vs control): 1.099
- log2 Fold Change (gene HP0749, exposed to lethal concentrations vs control): 0.00638
- log2 Fold Change (gene HP0751, exposed to lethal concentrations vs control): 1.659
- log2 Fold Change (gene HP0754, exposed to lethal concentrations vs control): 0.003
- log2 Fold Change (gene HP0756, exposed to lethal concentration of V vs control): -1.508
- log2 Fold Change (gene HP0757, exposed to lethal concentrations vs control): -0.808
- log2 Fold Change (gene HP0761, exposed to lethal concentrations of V vs control): 1.008
- log2 Fold Change (gene HP0762, exposed to lethal concentrations vs control): -0.814
- log2 Fold Change (gene HP0764, exposed to lethal concentrations vs control): -0.017
- log2 Fold Change (gene HP0766, exposed to lethal concentrations vs control): 0.062
- log2 Fold Change (gene HP0769, exposed to lethal concentration of V vs control): -1.026
- log2 Fold Change (gene HP0771, exposed to lethal concentrations vs control): -0.751
- log2 Fold Change (gene HP0774, exposed to lethal concentrations vs control): 1.045
- log2 Fold Change (gene HP0775, exposed to lethal concentrations vs control): -0.806
- log2 Fold Change (gene HP0778, exposed to lethal concentrations of V vs control): 0.583
- log2 Fold Change (gene HP0779, exposed to lethal concentrations vs control): 2.039
- log2 Fold Change (gene HP0780, exposed to lethal concentrations vs control): 1.122
- log2 Fold Change (gene HP0781, exposed to lethal concentrations vs control): 0.042
- log2 Fold Change (gene HP0783, exposed to lethal concentrations of V vs control): 0.691
- log2 Fold Change (gene HP0788, exposed to lethal concentrations vs control): 1.185
- log2 Fold Change (gene HP0789, exposed to lethal concentrations of V vs control): 0.783
- log2 Fold Change (gene HP0790, exposed to lethal concentrations vs control): -0.057
- log2 Fold Change (gene HP0792, exposed to lethal concentrations vs control): -0.741
- log2 Fold Change (gene HP0797, exposed to lethal concentrations vs control): 0.043
- log2 Fold Change (gene HP0800, exposed to lethal concentrations vs control): 0.087
- log2 Fold Change (gene HP0801, exposed to lethal concentrations vs control): -0.747
- log2 Fold Change (gene HP0804, exposed to lethal concentrations vs control): -0.038
- log2 Fold Change (gene HP0806, exposed to lethal concentrations vs control): 0.068
- log2 Fold Change (gene HP0807, exposed to lethal concentrations vs control): -0.088
- log2 Fold Change (gene HP0812, exposed to lethal concentrations vs control): 1.465
- log2 Fold Change (gene HP0813, exposed to lethal concentrations vs control): 0.054
- log2 Fold Change (gene HP0814, exposed to lethal concentrations vs control): 0.030
- log2 Fold Change (gene HP0815, exposed to lethal concentrations of V vs control): 0.716
- log2 Fold Change (gene HP0817, exposed to lethal concentrations of V vs control): 0.632
- log2 Fold Change (gene HP0818, exposed to lethal concentrations vs control): 1.097
- log2 Fold Change (gene HP0819a, exposed to lethal concentrations vs control): -0.056
- log2 Fold Change (gene HP0822, exposed to lethal concentrations of V vs control): 0.980
- log2 Fold Change (gene HP0825, exposed to lethal concentrations vs control): 0.060
- log2 Fold Change (gene HP0826, exposed to lethal concentrations vs control): -0.022
- log2 Fold Change (gene HP0827, exposed to lethal concentration of V vs control): -2.426
- log2 Fold Change (gene HP0828, exposed to lethal concentration of V vs control): -1.081
- log2 Fold Change (gene HP0829, exposed to lethal concentrations of V vs control): 0.706
- log2 Fold Change (gene HP0835, exposed to lethal concentration of V vs control): -0.933
- log2 Fold Change (gene HP0838, exposed to lethal concentration of V vs control): -0.956
- log2 Fold Change (gene HP0841, exposed to lethal concentrations vs control): -0.634
- log2 Fold Change (gene HP0842, exposed to lethal concentration of V vs control): -0.958
- log2 Fold Change (gene HP0844, exposed to lethal concentrations vs control): 1.194
- log2 Fold Change (gene HP0845, exposed to lethal concentrations vs control): 1.292
- log2 Fold Change (gene HP0846, exposed to lethal concentrations of V vs control): 0.717
- log2 Fold Change (gene HP0848, exposed to lethal concentrations vs control): -0.011
- log2 Fold Change (gene HP0849, exposed to lethal concentrations of V vs control): 0.921
- log2 Fold Change (gene HP0850, exposed to lethal concentrations of V vs control): 0.610
- log2 Fold Change (gene HP0851, exposed to lethal concentrations vs control): -0.758
- log2 Fold Change (gene HP0852, exposed to lethal concentrations of V vs control): 0.640
- log2 Fold Change (gene HP0853, exposed to lethal concentrations vs control): -0.063
- log2 Fold Change (gene HP0854, exposed to lethal concentrations vs control): -0.00249
- log2 Fold Change (gene HP0855, exposed to lethal concentration of V vs control): -1.352
- log2 Fold Change (gene HP0856, exposed to lethal concentrations vs control): -0.715
- log2 Fold Change (gene HP0857, exposed to lethal concentrations vs control): -0.012
- log2 Fold Change (gene HP0860, exposed to lethal concentrations vs control): -0.773
- log2 Fold Change (gene HP0868, exposed to lethal concentrations vs control): 0.013
- log2 Fold Change (gene HP0871, exposed to lethal concentrations vs control): 2.529
- log2 Fold Change (gene HP0873, exposed to lethal concentrations of V vs control): 0.575
- log2 Fold Change (gene HP0874, exposed to lethal concentrations vs control): 1.111
- log2 Fold Change (gene HP0875, exposed to lethal concentrations vs control): 1.638
- log2 Fold Change (gene HP0876, exposed to lethal concentrations of V vs control): 0.812
- log2 Fold Change (gene HP0878, exposed to lethal concentrations of V vs control): 0.545
- log2 Fold Change (gene HP0879, exposed to lethal concentrations of V vs control): 0.771
- log2 Fold Change (gene HP0880, exposed to lethal concentrations vs control): -0.109
- log2 Fold Change (gene HP0881, exposed to lethal concentrations of V vs control): 0.555
- log2 Fold Change (gene HP0884, exposed to lethal concentrations of V vs control): 0.646
- log2 Fold Change (gene HP0887, exposed to lethal concentrations vs control): -0.678
- log2 Fold Change (gene HP0892, exposed to lethal concentrations vs control): 0.096
- log2 Fold Change (gene HP0894, exposed to lethal concentrations vs control): -0.045
- log2 Fold Change (gene HP0895, exposed to lethal concentrations of V vs control): 0.816
- log2 Fold Change (gene HP0896, exposed to lethal concentrations vs control): 1.163
- log2 Fold Change (gene HP0899, exposed to lethal concentrations of V vs control): 0.861
- log2 Fold Change (gene HP0901, exposed to lethal concentrations vs control): -0.094
- log2 Fold Change (gene HP0902, exposed to lethal concentrations vs control): 0.058
- log2 Fold Change (gene HP0906, exposed to lethal concentrations vs control): -0.102
- log2 Fold Change (gene HP0910, exposed to lethal concentrations vs control): 0.076
- log2 Fold Change (gene HP0911, exposed to lethal concentrations vs control): 0.00146
- log2 Fold Change (gene HP0913, exposed to lethal concentrations vs control): 0.114
- log2 Fold Change (gene HP0914, exposed to lethal concentrations of V vs control): 0.683
- log2 Fold Change (gene HP0918, exposed to lethal concentrations vs control): 0.035
- log2 Fold Change (gene HP0920, exposed to lethal concentrations of V vs control): 0.774
- log2 Fold Change (gene HP0922, exposed to lethal concentrations of V vs control): 0.777
- log2 Fold Change (gene HP0923, exposed to lethal concentrations vs control): -0.057
- log2 Fold Change (gene HP0927, exposed to lethal concentrations of V vs control): 0.516
- log2 Fold Change (gene HP0933, exposed to lethal concentrations vs control): -0.103
- log2 Fold Change (gene HP0934, exposed to lethal concentration of V vs control): -1.089
- log2 Fold Change (gene HP0940, exposed to lethal concentrations vs control): -0.017
- log2 Fold Change (gene HP0941, exposed to lethal concentrations of V vs control): 0.594
- log2 Fold Change (gene HP0942, exposed to lethal concentrations vs control): 1.233
- log2 Fold Change (gene HP0943, exposed to lethal concentrations vs control): 2.241
- log2 Fold Change (gene HP0944, exposed to lethal concentrations vs control): 1.497
- log2 Fold Change (gene HP0944a, exposed to lethal concentrations vs control): 0.130
- log2 Fold Change (gene HP0947, exposed to lethal concentrations vs control): 0.145
- log2 Fold Change (gene HP0950, exposed to lethal concentrations of V vs control): 0.641
- log2 Fold Change (gene HP0951, exposed to lethal concentrations vs control): -0.014
- log2 Fold Change (gene HP0956, exposed to lethal concentration of V vs control): -1.094
- log2 Fold Change (gene HP0957, exposed to lethal concentration of V vs control): -0.904
- log2 Fold Change (gene HP0958, exposed to lethal concentrations vs control): -0.863
- log2 Fold Change (gene HP0959, exposed to lethal concentrations of V vs control): 0.722
- log2 Fold Change (gene HP0964, exposed to lethal concentrations of V vs control): 0.560
- log2 Fold Change (gene HP0965, exposed to lethal concentrations of V vs control): 0.566
- log2 Fold Change (gene HP0966, exposed to lethal concentrations vs control): 0.078
- log2 Fold Change (gene HP0970, exposed to lethal concentrations vs control): -0.683
- log2 Fold Change (gene HP0971, exposed to lethal concentration of V vs control): -1.088
- log2 Fold Change (gene HP0973, exposed to lethal concentrations vs control): 0.095
- log2 Fold Change (gene HP0974, exposed to lethal concentrations vs control): 0.052
- log2 Fold Change (gene HP0977, exposed to lethal concentration of V vs control): -0.962
- log2 Fold Change (gene HP0978, exposed to lethal concentrations vs control): 0.116
- log2 Fold Change (gene HP0979, exposed to lethal concentrations of V vs control): 0.480
